Reference: patent US20050002904A1, “Uses of vascular endothelial growth factor and type I collagen inducible protein (VCIP)” (priority 2003, published 2005)
These are yes or no findings as the source states them, for the method shown. Some entries that bind do so weakly or less than the wild type. Sequences can lack the tags named with a protein.

Protein sequences, listed by entry. Tags and fused reporters are not part of them. Lines headed by an entry give the natural chain unless they say otherwise; changes in a name come on top.
UniProt P06756: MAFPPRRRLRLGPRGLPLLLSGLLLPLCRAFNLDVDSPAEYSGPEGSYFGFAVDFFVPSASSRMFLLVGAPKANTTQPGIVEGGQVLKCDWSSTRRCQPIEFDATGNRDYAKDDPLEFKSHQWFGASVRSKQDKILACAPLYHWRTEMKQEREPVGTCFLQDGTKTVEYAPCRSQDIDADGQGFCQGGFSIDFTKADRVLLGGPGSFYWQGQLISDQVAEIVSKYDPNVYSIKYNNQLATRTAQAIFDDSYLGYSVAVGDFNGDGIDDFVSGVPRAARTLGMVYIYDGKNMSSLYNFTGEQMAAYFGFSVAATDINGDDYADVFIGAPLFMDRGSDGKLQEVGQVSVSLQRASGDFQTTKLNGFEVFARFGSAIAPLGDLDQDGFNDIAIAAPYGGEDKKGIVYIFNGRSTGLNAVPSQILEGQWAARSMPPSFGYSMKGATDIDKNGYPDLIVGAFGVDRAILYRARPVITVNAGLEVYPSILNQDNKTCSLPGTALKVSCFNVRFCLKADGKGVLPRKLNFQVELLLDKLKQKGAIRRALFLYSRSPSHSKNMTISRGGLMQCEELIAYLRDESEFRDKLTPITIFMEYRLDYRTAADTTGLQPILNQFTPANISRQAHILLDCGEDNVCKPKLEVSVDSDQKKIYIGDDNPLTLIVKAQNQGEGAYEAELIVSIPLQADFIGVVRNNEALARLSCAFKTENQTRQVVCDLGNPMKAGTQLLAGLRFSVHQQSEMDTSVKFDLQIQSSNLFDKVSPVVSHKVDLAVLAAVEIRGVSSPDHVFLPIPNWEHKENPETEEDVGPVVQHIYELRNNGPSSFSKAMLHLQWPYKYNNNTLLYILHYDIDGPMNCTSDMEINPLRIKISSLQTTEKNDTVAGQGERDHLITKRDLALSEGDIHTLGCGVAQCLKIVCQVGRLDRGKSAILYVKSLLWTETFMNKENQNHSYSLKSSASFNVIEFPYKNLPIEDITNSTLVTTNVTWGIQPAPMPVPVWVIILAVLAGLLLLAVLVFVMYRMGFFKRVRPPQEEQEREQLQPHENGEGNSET
UniProt P08648: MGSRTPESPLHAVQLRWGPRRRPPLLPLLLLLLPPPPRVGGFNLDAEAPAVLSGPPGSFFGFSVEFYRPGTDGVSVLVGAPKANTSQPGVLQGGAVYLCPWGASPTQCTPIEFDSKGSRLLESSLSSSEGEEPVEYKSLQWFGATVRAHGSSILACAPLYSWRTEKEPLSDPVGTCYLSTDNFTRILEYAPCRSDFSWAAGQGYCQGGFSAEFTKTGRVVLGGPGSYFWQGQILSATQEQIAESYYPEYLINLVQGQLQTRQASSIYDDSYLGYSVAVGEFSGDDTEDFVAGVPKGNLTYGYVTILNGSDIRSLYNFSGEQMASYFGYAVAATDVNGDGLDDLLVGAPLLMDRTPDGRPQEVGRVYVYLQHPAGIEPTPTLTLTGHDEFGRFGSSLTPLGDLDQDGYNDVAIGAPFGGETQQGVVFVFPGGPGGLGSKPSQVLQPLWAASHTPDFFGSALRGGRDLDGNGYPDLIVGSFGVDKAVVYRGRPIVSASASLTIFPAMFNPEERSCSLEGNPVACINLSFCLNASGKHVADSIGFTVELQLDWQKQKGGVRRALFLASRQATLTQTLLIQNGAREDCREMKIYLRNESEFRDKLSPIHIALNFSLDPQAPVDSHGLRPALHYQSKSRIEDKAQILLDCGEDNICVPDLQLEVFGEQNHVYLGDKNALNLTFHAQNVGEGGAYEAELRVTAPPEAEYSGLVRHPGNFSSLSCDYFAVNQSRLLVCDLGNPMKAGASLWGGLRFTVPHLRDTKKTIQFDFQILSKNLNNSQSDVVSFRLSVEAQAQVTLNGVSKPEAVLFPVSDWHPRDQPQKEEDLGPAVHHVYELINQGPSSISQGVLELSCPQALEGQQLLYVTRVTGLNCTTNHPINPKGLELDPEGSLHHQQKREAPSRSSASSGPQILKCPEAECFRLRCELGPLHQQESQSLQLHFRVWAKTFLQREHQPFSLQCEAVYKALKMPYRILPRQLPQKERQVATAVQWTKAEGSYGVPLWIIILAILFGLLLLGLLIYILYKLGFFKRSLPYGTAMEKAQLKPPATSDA

Key:
soluble αvβ3 integrin [1] = biological target: soluble αvβ3 integrin (UniProt P06756); experiment: solid-phase ligand binding ELISA, integrin immobilized, anti-GST detection
soluble α5β1 integrin = soluble α5β1 integrin (UniProt P08648); experiment: as above
soluble αvβ3 integrin [2] = biological target: soluble αvβ3 integrin (UniProt P06756); experiment: solid-phase ligand binding ELISA, dose series (FIG. 10C)

Measured: binding

DIAKVSIGRLRPHFLSVCNPDFSQINCSEGYIQNYRCRGDDSKVQEARKS (peptide, not shown: a dimerising Fc or GST) [GST-VCIP-RGD fusion protein (wild-type glutathione S-transferase-VCIP-RGD)]
binds: all assays above
